These are yes or no findings as the source states them, for the method shown. Binding seen in cells or lysates may run through a third protein. Some entries that bind do so weakly or less than the wild type.
Tests used:
[1] = biological target: Notch1 ECD fragment containing EGF repeats 10-21, C-terminal FLAG tag (Homo sapiens (Human)) (UniProt P46531); assay: Ni-NTA pull-down, α-FLAG immunoblot (figure legend)
[2] = biological target: Notch1 ECD fragment containing EGF repeats 10-21, C-terminal FLAG tag (Homo sapiens (Human)) (UniProt P46531); assay: Ni-NTA pull-down of HIS8 β2 ECD with FLAG-tagged Notch1 fragment, α-FLAG immunoblot
[3] = biological target: endogenous Notch1 of SW620 cells (human) (UniProt P46531); assay: co-immunoprecipitation, immunoblot with Notch1 polyclonal antibody G20 (figure legend)
[4] = biological target: endogenous Notch1 of SW620 cells (human) (UniProt P46531); assay: co-immunoprecipitation with α-β2 monoclonal antibodies from full-length β2-transfected SW620 lysates, Notch1 immunoblot

Sequences of proteins named here, by UniProt entry; tags and fusion partners are left off. A change or cut given only in a name is not applied to a line headed by its entry. Residues count along the entry.
UniProt P46531, residues 19-2555: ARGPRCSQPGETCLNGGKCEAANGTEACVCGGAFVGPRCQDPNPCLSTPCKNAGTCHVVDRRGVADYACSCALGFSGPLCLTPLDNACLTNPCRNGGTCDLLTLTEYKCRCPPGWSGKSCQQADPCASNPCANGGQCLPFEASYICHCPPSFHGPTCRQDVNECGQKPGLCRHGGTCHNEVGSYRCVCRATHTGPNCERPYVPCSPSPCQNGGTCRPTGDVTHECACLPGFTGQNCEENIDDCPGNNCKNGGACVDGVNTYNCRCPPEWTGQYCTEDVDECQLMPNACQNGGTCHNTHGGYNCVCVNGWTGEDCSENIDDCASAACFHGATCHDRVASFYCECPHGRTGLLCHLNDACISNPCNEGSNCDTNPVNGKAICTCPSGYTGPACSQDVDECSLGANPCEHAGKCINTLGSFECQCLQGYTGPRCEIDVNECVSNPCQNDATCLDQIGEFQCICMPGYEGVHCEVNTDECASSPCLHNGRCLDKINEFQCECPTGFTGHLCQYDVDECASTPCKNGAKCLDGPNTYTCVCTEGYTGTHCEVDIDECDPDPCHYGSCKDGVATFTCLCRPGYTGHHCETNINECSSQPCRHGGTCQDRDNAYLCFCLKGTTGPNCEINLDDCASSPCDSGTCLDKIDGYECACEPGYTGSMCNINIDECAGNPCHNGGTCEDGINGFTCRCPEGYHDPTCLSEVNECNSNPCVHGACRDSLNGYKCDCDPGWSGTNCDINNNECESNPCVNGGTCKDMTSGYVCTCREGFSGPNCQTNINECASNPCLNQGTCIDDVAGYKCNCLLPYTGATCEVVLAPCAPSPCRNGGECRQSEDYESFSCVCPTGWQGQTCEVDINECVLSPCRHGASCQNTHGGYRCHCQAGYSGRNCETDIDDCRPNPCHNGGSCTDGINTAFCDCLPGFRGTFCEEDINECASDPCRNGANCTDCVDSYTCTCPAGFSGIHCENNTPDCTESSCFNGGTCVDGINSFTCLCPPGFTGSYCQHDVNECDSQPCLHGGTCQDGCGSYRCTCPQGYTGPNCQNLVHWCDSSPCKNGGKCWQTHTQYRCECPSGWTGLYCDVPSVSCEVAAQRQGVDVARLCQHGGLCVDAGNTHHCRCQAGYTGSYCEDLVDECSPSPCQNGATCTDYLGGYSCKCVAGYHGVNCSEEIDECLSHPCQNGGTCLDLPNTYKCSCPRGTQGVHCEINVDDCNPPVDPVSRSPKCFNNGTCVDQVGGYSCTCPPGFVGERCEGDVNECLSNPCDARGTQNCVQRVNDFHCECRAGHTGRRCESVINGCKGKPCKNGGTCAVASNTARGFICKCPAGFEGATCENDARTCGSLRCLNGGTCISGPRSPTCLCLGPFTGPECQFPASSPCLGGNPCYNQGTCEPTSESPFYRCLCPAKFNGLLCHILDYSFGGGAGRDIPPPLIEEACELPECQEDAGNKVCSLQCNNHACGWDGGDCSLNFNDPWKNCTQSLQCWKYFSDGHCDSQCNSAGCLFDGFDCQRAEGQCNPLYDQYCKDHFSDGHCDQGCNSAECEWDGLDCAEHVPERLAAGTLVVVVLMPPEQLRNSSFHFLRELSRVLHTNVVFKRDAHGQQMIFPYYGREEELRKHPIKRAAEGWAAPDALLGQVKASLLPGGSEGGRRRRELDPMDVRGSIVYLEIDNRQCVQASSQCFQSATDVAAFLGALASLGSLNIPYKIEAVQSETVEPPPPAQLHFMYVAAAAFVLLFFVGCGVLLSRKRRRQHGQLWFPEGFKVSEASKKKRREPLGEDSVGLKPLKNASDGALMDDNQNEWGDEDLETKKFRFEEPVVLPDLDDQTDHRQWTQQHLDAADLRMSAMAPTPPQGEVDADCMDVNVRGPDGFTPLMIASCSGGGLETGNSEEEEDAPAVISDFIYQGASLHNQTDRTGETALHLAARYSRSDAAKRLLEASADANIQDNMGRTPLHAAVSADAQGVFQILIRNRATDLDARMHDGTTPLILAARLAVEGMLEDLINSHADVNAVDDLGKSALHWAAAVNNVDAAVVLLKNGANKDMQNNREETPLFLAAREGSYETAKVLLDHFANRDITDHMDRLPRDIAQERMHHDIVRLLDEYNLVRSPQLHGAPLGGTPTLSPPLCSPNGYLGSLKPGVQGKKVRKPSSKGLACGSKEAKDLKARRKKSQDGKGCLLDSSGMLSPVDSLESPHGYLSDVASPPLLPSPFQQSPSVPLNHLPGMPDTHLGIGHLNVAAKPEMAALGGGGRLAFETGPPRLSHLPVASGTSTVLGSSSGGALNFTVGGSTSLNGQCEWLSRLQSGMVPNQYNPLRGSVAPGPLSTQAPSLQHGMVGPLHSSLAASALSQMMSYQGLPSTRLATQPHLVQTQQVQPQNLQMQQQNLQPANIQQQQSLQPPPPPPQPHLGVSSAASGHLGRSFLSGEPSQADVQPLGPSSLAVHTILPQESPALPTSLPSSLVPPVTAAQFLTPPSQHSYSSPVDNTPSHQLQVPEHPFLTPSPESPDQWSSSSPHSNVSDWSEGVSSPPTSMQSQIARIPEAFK
UniProt O60939: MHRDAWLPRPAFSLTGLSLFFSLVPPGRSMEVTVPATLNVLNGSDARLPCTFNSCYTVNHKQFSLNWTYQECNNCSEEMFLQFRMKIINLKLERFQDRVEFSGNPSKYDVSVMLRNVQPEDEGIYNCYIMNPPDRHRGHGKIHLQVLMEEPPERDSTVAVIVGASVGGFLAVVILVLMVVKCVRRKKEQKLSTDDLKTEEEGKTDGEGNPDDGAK

C-terminal polyhistidine-tagged (HIS8) human β2 ECD (SCN2B.ECD.HIS), secreted from CHO cells (from UniProt O60939 30-159) (ligand)
binding [1]: binds
binding [2]: binds

full-length β2 (SCN2B) expressed in cells (from UniProt O60939 30-215) (ligand)
binding [3]: binds
binding [4]: binds

Reference: patent publication US20110182886A1
